Measured values from article PMC7553939.
Results are given in words; binding and its absence hold for the method and conditions named. In cells and extracts the contact can be indirect. Some entries that bind do so weakly or less than the wild type.

Sequences of proteins named here, by UniProt entry; tags and fusion partners are left off.
UniProt Q62432: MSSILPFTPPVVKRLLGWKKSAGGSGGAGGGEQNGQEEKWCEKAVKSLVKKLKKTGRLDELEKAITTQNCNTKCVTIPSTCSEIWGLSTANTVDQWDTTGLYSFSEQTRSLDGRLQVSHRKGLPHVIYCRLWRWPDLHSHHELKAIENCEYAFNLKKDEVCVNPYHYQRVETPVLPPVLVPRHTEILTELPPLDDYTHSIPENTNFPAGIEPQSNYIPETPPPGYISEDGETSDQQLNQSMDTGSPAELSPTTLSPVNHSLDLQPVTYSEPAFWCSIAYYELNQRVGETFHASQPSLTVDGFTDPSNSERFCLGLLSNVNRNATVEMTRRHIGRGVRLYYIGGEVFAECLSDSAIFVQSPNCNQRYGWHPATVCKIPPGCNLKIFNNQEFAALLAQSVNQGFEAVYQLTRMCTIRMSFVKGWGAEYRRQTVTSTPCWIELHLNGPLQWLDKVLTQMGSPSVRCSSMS
UniProt Q8BUN5: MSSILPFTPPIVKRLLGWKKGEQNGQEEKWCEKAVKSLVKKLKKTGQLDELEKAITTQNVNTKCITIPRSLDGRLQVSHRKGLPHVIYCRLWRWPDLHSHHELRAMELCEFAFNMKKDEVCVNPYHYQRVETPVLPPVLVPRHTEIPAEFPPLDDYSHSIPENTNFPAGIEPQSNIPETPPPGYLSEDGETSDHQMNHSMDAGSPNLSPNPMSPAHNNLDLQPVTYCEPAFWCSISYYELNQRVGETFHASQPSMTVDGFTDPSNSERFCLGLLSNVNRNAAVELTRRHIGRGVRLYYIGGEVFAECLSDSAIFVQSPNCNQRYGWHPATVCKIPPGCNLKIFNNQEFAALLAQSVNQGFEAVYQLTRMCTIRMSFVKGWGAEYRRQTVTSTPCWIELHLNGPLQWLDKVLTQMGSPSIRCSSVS
UniProt Q99JW4: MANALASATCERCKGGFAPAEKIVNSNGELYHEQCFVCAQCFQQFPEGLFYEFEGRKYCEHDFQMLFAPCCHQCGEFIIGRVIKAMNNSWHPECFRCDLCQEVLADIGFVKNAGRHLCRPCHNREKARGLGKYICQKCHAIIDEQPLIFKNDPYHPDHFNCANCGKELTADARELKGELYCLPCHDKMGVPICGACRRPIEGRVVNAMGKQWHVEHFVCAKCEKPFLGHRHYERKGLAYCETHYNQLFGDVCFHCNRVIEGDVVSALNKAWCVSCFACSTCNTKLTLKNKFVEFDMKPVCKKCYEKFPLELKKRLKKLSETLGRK

Assays:
[1] = biological target: Smad2, endogenous in ATDC5 chondrocyte-like cells (mouse (endogenous in ATDC5)) (UniProt Q62432); test: co-IP; whole-cell extracts (1 000 μg) of ATDC5 chondrocyte-like cells, endogenous proteins; IP with 3 μg Smad2/3 antibody overnight at 4 °C, protein A/G magnetic beads; western blot with Pinch1 antibody
[2] = biological target: Smad3, endogenous in ATDC5 chondrocyte-like cells (mouse (endogenous in ATDC5)) (UniProt Q8BUN5); test: as above

Pinch1, endogenous in ATDC5 chondrocyte-like cells (from UniProt Q99JW4 1-325)
binding [1]: binds
binding [2]: binds
